## Screening data, single-dose tests

By UniProt entry, the sequences of proteins in these tests, tags left out. Residues count along the entry.
UniProt Q8IDJ8, 1-583: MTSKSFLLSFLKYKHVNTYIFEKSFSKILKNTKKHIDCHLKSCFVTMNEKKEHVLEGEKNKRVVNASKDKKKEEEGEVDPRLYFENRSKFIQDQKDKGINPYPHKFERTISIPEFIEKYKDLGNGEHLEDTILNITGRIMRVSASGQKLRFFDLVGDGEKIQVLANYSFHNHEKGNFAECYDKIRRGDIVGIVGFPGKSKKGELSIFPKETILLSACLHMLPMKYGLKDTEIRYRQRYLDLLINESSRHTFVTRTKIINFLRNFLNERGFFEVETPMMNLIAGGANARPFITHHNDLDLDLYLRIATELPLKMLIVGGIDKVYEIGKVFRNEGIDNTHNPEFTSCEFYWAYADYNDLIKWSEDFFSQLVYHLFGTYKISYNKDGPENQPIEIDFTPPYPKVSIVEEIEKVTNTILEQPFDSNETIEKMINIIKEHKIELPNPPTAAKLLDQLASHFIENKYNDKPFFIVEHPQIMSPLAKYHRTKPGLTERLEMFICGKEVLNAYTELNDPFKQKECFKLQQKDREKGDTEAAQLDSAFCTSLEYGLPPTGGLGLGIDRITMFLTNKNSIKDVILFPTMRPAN

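Lysine-tRNA ligase, Plasmodium falciparum 3D7 (UniProt Q8IDJ8). Enzyme assay of the cytosolic lysyl-tRNA synthetase in 384-well plates, read by luminescence. Compounds at 30 µM. Higher reads as stronger inhibition, judged from the few compounds that gave an IC50. Size under these conditions: about 69,000 compounds, about 49 of them at 50% or above in at least one test.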

Values are the deposited “Percent Effect”, in %. The record does not define 0% and 100%; most values in the screen are far below 50% and negative numbers occur (in some assays of this library far below -100). This is an unselected part of the compounds tested.

| # | compound | effect |
|---|---|---|
| 1 | `CC(C)=CCN1Cc2nnc(C3CCOCC3)n2C(Cc2c[nH]cn2)C1` (stereo not given) | 8.603% |
| 2 | `CCCc1cc(N(CCOC)CC(F)F)n2ncnc2n1` | -4.315% |
| 3 | `COc1ncccc1CNCc1c(C)nn(C)c1N(C)C` | -4.146% |
| 4 | `CCC1c2ccsc2CCN1C(=O)NCCNc1ncccn1` (stereo not given) | 5.838% |
| 5 | `O=S(=O)(c1ccc(-c2cnco2)cc1)N1CCCC(O)(CO)CC1` (stereo not given) | -2.843% |
| 6 | `O=C(c1cccs1)N1CCC(O)(CN2CCc3ccccc3C2)C1` (stereo not given) | -1.033% |
| 7 | `Cc1cs/c(=N\C(=O)Cn2nc(N3CCC(C)CC3)ccc2=O)[nH]1` | 5.923% |
| 8 | `Cc1noc([C@H]2C[C@@H]3CCN(c4nnc(C)s4)C[C@H]3O2)n1` | 6.052% |
| 9 | `Cc1nccn1C1CCCN(C(=O)Cn2ccc(=O)n(C)c2=O)C1` (stereo not given) | 7.127% |
| 10 | `CC(C)C(O)CNC(=O)Nc1ccc(F)c(Cl)c1` (stereo not given) | 4.019% |
| 11 | `CNC(=O)c1ccc(C2CN(C(=O)c3cncs3)CCO2)nc1` (stereo not given) | 1.102% |
| 12 | `Cc1ccc(CN2CCc3onc(C(=O)Nc4cccnc4)c3C2)o1` | 5.13% |
| 13 | `Cc1ncncc1C(=O)N1CCOC(C)(C(=O)NC2CCCC2)C1` (stereo not given) | -0.7143% |
| 14 | `Cc1cccc(C2CCCN2Cc2nc(N)nc(N(C)C)n2)c1C` (stereo not given) | -8.018% |
| 15 | `CCOC(=O)N1CCN(C(=O)c2cc(-c3ccccc3F)on2)CC1` | -0.7524% |
| 16 | `O=C(c1ccsc1)N1CCc2c(CN3CCCC3)n[nH]c2C1` | 2.445% |
| 17 | `COc1cccc(Cn2c(C)c(C)oc2=O)c1OC` | 9.055% |
| 18 | `Cc1nccn1-c1ccc(CNS(=O)(=O)N2CCC(C)CC2)cn1` | -2.186% |
| 19 | `Fc1ccc(-c2noc(C3COCCO3)n2)cc1F` (stereo not given) | 8.82% |
| 20 | `CN(C)C(=O)N1CCN(Cc2ccccc2)[C@@H]2CS(=O)(=O)C[C@@H]21` | 4.325% |
| 21 | `CC1CN(C)CCN1C(=O)Nc1nc(-c2ccco2)cs1` (stereo not given) | -0.3199% |
| 22 | `c1ncn(CC2CCCCN2Cc2csc(C3CCCC3)n2)n1` (stereo not given) | -4.486% |
| 23 | `CCN1CCN(C(=O)c2cnn(-c3ccccc3Cl)c2)CC1` | 0.1686% |
| 24 | `Cn1c(CN2CCC(O)CC2)nnc1C1CCCN(c2ccncc2)C1` (stereo not given) | 0.634% |
| 25 | `Cc1cc(C)c(S(=O)(=O)Nc2c(C)noc2C)cc1C(=O)O` | 6.537% |
| 26 | `CCOc1ccc(-c2nc(CN(C)Cc3c(C)noc3C)cs2)cc1` | 4.435% |
| 27 | `NC(=O)C1CCCN1C1CCN(C(=O)c2cccc3c2OCO3)CC1` (stereo not given) | 5.446% |
| 28 | `CCc1noc(CCCC(=O)Nc2cc(C(F)(F)F)c[nH]c2=O)n1` | 2.327% |
| 29 | `CC(C)C(=O)NCCC(=O)N1CCN(c2ccccn2)CC1` | 4.431% |
| 30 | `O=C(c1cccc(-n2cnnc2)c1)N1C[C@@H](O)[C@H](N2CCOCC2)C1` | 1.194% |
| 31 | `O=C(NCc1cc(-c2ccccc2)no1)NCC1CCCO1` (stereo not given) | 4.992% |
| 32 | `Cc1cc(C)n(CC2CCCN2Cc2c(C)noc2C)n1` (stereo not given) | -2.697% |
| 33 | `COCC1c2c(cnn2C)CCN1C(=O)c1cscn1` (stereo not given) | 4.131% |
| 34 | `CC(C)CCNC(=O)c1cccnc1Oc1cccnc1` | 6.889% |
| 35 | `CN(Cc1cccc(O)c1)CC1CCCN(CCc2ccc(Cl)cc2)C1` (stereo not given) | 5.302% |
| 36 | `O=C(NCc1nc2ccccc2[nH]1)c1cnn2c1OCCC2` | 7.051% |
| 37 | `CC(C)N1CCCC(CNC(=O)Cc2csc(-c3cccnc3)n2)C1` (stereo not given) | -0.1133% |
| 38 | `O=C(Nc1ccc(Cl)cn1)C1CCCN(CCc2ccncc2)C1` (stereo not given) | 6.07% |
| 39 | `CN1CCCC1CNC(=O)CCOc1ccc(Cl)cc1` (stereo not given) | 0.1624% |
| 40 | `CCCc1nc(C)c(C(=O)NC2CCN(CC(N)=O)CC2)s1` | 2.694% |
| 41 | `O=C([C@H]1CN(Cc2nccs2)C[C@H]2OCC[C@@H]12)N1CCCC1` | -7.711% |
| 42 | `Cc1nc(N2C[C@@H](CN3CCCN(C)CC3)[C@@H](CO)C2)c2ccsc2n1` | -2.998% |
| 43 | `CNS(=O)(=O)c1cccc(CNc2nccc(C(F)(F)F)n2)c1` | -5.394% |
| 44 | `CCCC(=O)N1CCc2c(CNS(C)(=O)=O)cncc2C1` | 2.17% |
| 45 | `O=S(=O)(c1ccccc1)N1CCCC1c1cc[nH]n1` (stereo not given) | 2.426% |
| 46 | `CC(C)NC(=O)[C@@H](NC(=O)N1CCN(c2ccc(Cl)cc2)CC1)C(C)C` | -4.968% |
| 47 | `Cc1nc(C)n(C2CCCN(C(=O)c3ccn(C(C)C)n3)C2)n1` (stereo not given) | 0.8681% |
| 48 | `CNC(=O)c1ccc(S(=O)(=O)NCc2cccnc2N(C)C)cc1` | 2.473% |
| 49 | `CNS(=O)(=O)Cc1cccc(CNCc2ccsc2)c1` | 2.443% |
| 50 | `O=C(Nc1ccnn1Cc1ccccc1Cl)C1CCS(=O)(=O)C1` (stereo not given) | 1.601% |
| 51 | `CC(C)(C)NC(=O)CNc1ncc(Br)cn1` | 2.794% |
| 52 | `Cc1ccn2c(=O)cc(CSCC(=O)Nc3nnc(C(C)C)s3)nc2c1` | -0.3152% |
| 53 | `CN(C)CCOCC1CN(Cc2cccs2)Cc2ccnn2C1` (stereo not given) | 8.175% |
| 54 | `CC1CS(=O)(=O)CCN1Cc1ccccc1OCC(F)(F)F` (stereo not given) | 1.42% |
| 55 | `CC(C)CCN1CCCC12Cc1ccccc1CNC2=O` (stereo not given) | 1.797% |
| 56 | `CCSc1cccc(NCc2cccnc2)c1` | -4.95% |
| 57 | `c1ccc(NCc2cn3c(n2)CN(Cc2cccs2)CC3)nc1` | 4.173% |
| 58 | `CCN(C(=O)CCc1ccccc1)C1CC(=O)NC1=O` (stereo not given) | 3.234% |
| 59 | `COCCNC(=O)[C@H]1CC[C@@H]2[C@@H](CCN2c2ncc(F)cn2)O1` | 5.268% |
| 60 | `COCCC(=O)N1CCc2c(CNc3ncccn3)cncc2C1` | 3.895% |
| 61 | `N#Cc1ccc(CN2C[C@@H]3OCC(=O)N[C@@H]3C2)cc1` | -1.892% |
| 62 | `Cn1ccc(C(=O)NC2CCN(c3ncccn3)CC2)cc1=O` | 3.516% |
| 63 | `Cc1nn(C)c(C)c1C(=O)NCc1cc(N(C)C)nc2ccccc12` | -1.148% |
| 64 | `CCS(=O)(=O)N1CCc2ccc(NC(=O)Nc3cccc(SC)c3)cc21` | -5.326% |
| 65 | `Cc1n[nH]c(C)c1CCc1nc(C2CC2)n[nH]1` | 7.641% |
| 66 | `COc1cccc([C@@H]2CCN(Cc3cn(C)c4ccccc34)C[C@H]2O)c1` | 1.349% |
| 67 | `CC(C)(C)NC(=O)CN1CCNCC1` | -4.204% |
| 68 | `CC(c1cc(F)ccc1F)N1CCN(C(=O)c2ccc(=O)[nH]c2)CC1` (stereo not given) | 1.864% |
| 69 | `O=C(CCn1nc(C(F)(F)F)c(Cl)c1C1CC1)NN1CCOCC1` | 0.6845% |
| 70 | `O=C(c1cscn1)N1CC[C@@H]2[C@@H]1CCN2C1CCOC1` (stereo not given in full) | 0.6697% |
| 71 | `CNC(=O)C1CN(C(=O)c2cccnc2)CCN(S(C)(=O)=O)C1` (stereo not given) | 2.844% |
| 72 | `CC(C)N1[C@H](CN2CCCC2)C[C@@H]2CN(Cc3ccoc3)CC[C@@H]21` | 1.999% |
| 73 | `O=C1COc2ccc(Br)cc2CN1CC1CC1` | 6.297% |

The last 6 entries again:

compound	effect
CC(c1cc(F)ccc1F)N1CCN(C(=O)c2ccc(=O)[nH]c2)CC1 (stereo not given)	1.864%
O=C(CCn1nc(C(F)(F)F)c(Cl)c1C1CC1)NN1CCOCC1	0.6845%
O=C(c1cscn1)N1CC[C@@H]2[C@@H]1CCN2C1CCOC1 (stereo not given in full)	0.6697%
CNC(=O)C1CN(C(=O)c2cccnc2)CCN(S(C)(=O)=O)C1 (stereo not given)	2.844%
CC(C)N1[C@H](CN2CCCC2)C[C@@H]2CN(Cc3ccoc3)CC[C@@H]21	1.999%
O=C1COc2ccc(Br)cc2CN1CC1CC1	6.297%

Source: ChEMBL document CHEMBL3988442, “University of Dundee, Small-Polar-MMV Screening Library” (2021).